Results are given in words; binding and its absence hold for the method and conditions named. In cells and extracts the contact can be indirect. Some binding calls cover weakened binding; strength is not graded here.
Target: AXIN1 (human (endogenous in HCT116)) (UniProt O15169)
Assay: co-IP

The chains behind the UniProt entries cited, without tags or fusion partners.
UniProt O15169: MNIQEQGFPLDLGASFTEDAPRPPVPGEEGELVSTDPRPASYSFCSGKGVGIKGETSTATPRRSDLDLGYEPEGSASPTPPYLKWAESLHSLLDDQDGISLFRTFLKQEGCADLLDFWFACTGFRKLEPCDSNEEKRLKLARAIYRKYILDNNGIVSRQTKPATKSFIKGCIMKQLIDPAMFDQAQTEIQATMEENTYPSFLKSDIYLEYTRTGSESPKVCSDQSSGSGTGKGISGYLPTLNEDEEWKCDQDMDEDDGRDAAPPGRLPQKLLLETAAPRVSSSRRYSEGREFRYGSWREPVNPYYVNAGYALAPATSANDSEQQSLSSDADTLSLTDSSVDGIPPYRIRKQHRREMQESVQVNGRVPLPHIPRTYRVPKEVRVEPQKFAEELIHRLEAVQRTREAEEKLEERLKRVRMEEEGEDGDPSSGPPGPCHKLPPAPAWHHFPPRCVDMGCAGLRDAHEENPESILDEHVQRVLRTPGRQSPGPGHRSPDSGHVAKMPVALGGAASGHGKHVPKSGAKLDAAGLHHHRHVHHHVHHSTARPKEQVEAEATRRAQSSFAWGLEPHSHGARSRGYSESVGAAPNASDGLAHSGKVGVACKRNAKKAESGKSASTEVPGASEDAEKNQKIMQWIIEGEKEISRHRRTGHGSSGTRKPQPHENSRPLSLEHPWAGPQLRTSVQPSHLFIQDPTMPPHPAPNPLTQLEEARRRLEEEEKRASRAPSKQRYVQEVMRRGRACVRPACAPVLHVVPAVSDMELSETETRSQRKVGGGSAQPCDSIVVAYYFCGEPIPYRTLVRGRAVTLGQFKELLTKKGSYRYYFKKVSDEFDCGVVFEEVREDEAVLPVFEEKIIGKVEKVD
UniProt P35222: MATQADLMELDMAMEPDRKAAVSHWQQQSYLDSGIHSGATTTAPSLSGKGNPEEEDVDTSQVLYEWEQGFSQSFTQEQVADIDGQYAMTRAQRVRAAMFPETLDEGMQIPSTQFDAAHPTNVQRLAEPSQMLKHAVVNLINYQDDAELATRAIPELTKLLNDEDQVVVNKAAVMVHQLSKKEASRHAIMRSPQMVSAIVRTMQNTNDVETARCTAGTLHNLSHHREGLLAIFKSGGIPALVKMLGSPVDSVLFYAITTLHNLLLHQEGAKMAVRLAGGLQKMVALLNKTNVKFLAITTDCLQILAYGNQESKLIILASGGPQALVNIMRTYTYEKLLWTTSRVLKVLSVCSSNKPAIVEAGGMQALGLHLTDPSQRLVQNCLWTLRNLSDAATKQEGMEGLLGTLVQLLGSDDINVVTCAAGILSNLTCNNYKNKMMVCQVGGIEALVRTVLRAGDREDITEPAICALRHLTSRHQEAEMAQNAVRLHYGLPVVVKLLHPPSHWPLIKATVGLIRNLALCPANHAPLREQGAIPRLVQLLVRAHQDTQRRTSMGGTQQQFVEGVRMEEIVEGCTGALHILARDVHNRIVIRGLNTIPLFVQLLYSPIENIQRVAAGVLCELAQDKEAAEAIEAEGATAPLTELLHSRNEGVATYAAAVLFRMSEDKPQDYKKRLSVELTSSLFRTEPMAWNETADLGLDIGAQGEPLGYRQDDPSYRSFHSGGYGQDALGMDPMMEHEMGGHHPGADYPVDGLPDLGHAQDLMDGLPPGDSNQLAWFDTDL

“beta-catenin (from UniProt P35222 1-781)” was tested, and the binding was “binds”.

Reference: article doi:10.1101/2025.06.13.659446
